Source: PubChem BioAssay AID743255 (National Center for Advancing Translational Sciences (NCATS), 2014)
Among all 390,000 compounds or so, about 910 (0.23%) were called active. The inconclusive results got no clear call from the source; some entries with a clear call stand among them for comparison. The call rests on the fitted dose curve; in most records, active means well fitted inhibition curve with a large enough effect; inconclusive means small, poorly fitted or top-dose-only effect; inactive means no such curve, though single readings can be large or run the other way. Potencies of inconclusive entries are doubtful fits and often do not repeat.

Amino acid sequences for entries named in this document (tags omitted). A change or cut given only in a name is not applied to a line headed by its entry.
UniProt O94782: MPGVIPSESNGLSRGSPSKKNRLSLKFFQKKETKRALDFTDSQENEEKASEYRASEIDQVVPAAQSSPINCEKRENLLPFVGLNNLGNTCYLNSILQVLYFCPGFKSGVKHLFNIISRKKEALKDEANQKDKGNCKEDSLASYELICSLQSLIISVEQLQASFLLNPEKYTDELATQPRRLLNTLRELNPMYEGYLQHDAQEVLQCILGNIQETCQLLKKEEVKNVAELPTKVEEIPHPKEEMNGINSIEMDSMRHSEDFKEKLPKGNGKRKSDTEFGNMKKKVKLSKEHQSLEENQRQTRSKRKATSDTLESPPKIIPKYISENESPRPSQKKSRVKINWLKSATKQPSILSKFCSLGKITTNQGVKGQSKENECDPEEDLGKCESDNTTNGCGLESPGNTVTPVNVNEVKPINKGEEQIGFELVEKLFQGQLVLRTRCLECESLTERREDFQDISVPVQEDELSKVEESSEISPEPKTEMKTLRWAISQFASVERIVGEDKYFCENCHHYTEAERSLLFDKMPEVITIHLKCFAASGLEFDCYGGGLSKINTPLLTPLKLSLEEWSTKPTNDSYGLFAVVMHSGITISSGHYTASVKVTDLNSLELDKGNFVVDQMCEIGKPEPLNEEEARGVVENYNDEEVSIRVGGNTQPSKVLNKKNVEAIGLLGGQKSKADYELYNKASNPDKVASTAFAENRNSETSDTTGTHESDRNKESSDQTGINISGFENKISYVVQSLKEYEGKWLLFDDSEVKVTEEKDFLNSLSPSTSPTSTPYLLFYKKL

Target: Ubiquitin carboxyl-terminal hydrolase 1 (Homo sapiens) (UniProt O94782)
Assay: Inhibitors of USP1/UAF1: Primary Screen; further: nearly all actives have a fitted effect of over 60% in size
Conditions: recombinant USP1/UAF1, Ub-Rhodamine cleavage fluorescence; series mostly up to 57.1 µM
How it was run: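 High-throughput fluorogenic screen: 1nM USP1/UAF1 complex, Ub-Rho substrate 150nM final, 50mM HEPES pH 7.8 with 0.5mM EDTA, 0.1 mg/ml BSA, 1mM TCEP and 0.01% Tween-20.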
Potency means the concentration at half of the fitted maximal effect.

Structure (SMILES) | Potency
Cc1ccc(/C=C/C(=O)OCC(=O)N(C)c2c(N)n(Cc3ccccc3)c(=O)[nH]c2=O)o1 | inconclusive: 0.251 µM [inhibitor, full curve, poor fit]
N#Cc1c(SCC(=O)Nc2ccccc2C(F)(F)F)sc2c(O)cc(=O)[nH]c12 | inconclusive: 0.562 µM [inhibitor, full curve, poor fit]
COc1ccc2c(CC(=O)Nc3ccc(OC)nc3)coc2c1 | inconclusive: 3.16 µM [inhibitor, full curve, poor fit]
Cc1ccc(C(=O)COC(=O)c2cc(-c3ccc(Cl)cc3)nc3ccccc23)cc1 | inactive
Cc1cccc(N2C(=O)/C(=C/c3cccnc3)SC2=S)c1 | inactive
COc1ccc(N(CC(=O)NCCSc2ccccn2)S(=O)(=O)c2ccc(C)cc2)cc1OC | inconclusive: 39.8 µM [inhibitor, single point]
COc1ccc(-c2cc(C(=O)N3CCc4ccccc4C3)no2)cc1 | inactive
CCCCCCn1c(=O)n2n(c1=O)[C@@H]1CN(S(=O)(=O)c3ccc(C)cc3)C[C@]1(O)[C@@H](OC(=O)NCc1ccccc1F)C2 | inconclusive: 44.7 µM [inhibitor, partial curve]
CC(C)=CCC/C(C)=C/CC/C(C)=C/CC/C(C)=C/CC1=C(C)C(=O)c2ccccc2C1=O | inactive
CCOCC(=O)Nc1cc(Cl)ccc1C | inconclusive: 5.01 µM [inhibitor, partial curve]
O=C(NCCCN1CCOCC1)c1cc(S(=O)(=O)N2CCCCC2)ccc1Cl | inactive
CC1CCC(NC(=O)Cn2ncc3c4ccccc4n(Cc4ccc(Cl)cc4)c3c2=O)CC1 (stereo not drawn) | inconclusive: 50.1 µM [inhibitor, single point]
NC(=S)NNC(=O)[C@@H]1CCCC[C@@H]1C(=O)O | inactive
COc1cccc(N2CC(NC(=O)COc3ccc4ccccc4c3)CC2=O)c1 (stereo not drawn) | inconclusive: 6.31 µM [inhibitor, full curve, poor fit]
Cc1ccc(C(c2c(O)nc3n(c2=O)CCS3)c2c(O)nc3n(c2=O)CCS3)cc1 | inactive
Cc1ccc(Cc2c(C)nc3nc(SCC(=O)NCCCN4CCCC4)nn3c2C)cc1 | inconclusive: 0.794 µM [inhibitor, full curve]
O=c1c(CN2CCN(Cc3ccccc3)CC2)coc2ccc(Cl)cc12 | inconclusive: 7.08 µM [inhibitor, partial curve, poor fit]
CCc1ccc(/C=C2/SC(=S)N(CCC(=O)Nc3cccc(C(=O)O)c3)C2=O)cc1 | inactive
Cc1cccc(N2CCN(C(=O)c3nn(C)c4c3CSc3ccccc3-4)CC2C)c1 (stereo not drawn) | inconclusive: 10 µM [inhibitor, partial curve]
Cc1cc([N+](=O)[O-])nn1Cc1ccc(C(=O)N/N=C/c2ccc(F)cc2)cc1 | inconclusive: 7.94 µM [inhibitor, partial curve, poor fit]
CCN(CCCNC(=O)c1cc2cc3cc(OC)ccc3nc2s1)c1cccc(C)c1 | inconclusive: 7.08 µM [inhibitor, single point]

Of the compounds above, these contain a carbonyl joined to an NH by a bond outside any ring:
Structure (SMILES) | Potency
N#Cc1c(SCC(=O)Nc2ccccc2C(F)(F)F)sc2c(O)cc(=O)[nH]c12 | inconclusive: 0.562 µM [inhibitor, full curve, poor fit]
COc1ccc2c(CC(=O)Nc3ccc(OC)nc3)coc2c1 | inconclusive: 3.16 µM [inhibitor, full curve, poor fit]
COc1ccc(N(CC(=O)NCCSc2ccccn2)S(=O)(=O)c2ccc(C)cc2)cc1OC | inconclusive: 39.8 µM [inhibitor, single point]
CCCCCCn1c(=O)n2n(c1=O)[C@@H]1CN(S(=O)(=O)c3ccc(C)cc3)C[C@]1(O)[C@@H](OC(=O)NCc1ccccc1F)C2 | inconclusive: 44.7 µM [inhibitor, partial curve]
CCOCC(=O)Nc1cc(Cl)ccc1C | inconclusive: 5.01 µM [inhibitor, partial curve]
O=C(NCCCN1CCOCC1)c1cc(S(=O)(=O)N2CCCCC2)ccc1Cl | inactive
CC1CCC(NC(=O)Cn2ncc3c4ccccc4n(Cc4ccc(Cl)cc4)c3c2=O)CC1 (stereo not drawn) | inconclusive: 50.1 µM [inhibitor, single point]
NC(=S)NNC(=O)[C@@H]1CCCC[C@@H]1C(=O)O | inactive
COc1cccc(N2CC(NC(=O)COc3ccc4ccccc4c3)CC2=O)c1 (stereo not drawn) | inconclusive: 6.31 µM [inhibitor, full curve, poor fit]
Cc1ccc(Cc2c(C)nc3nc(SCC(=O)NCCCN4CCCC4)nn3c2C)cc1 | inconclusive: 0.794 µM [inhibitor, full curve]
CCc1ccc(/C=C2/SC(=S)N(CCC(=O)Nc3cccc(C(=O)O)c3)C2=O)cc1 | inactive
Cc1cc([N+](=O)[O-])nn1Cc1ccc(C(=O)N/N=C/c2ccc(F)cc2)cc1 | inconclusive: 7.94 µM [inhibitor, partial curve, poor fit]
CCN(CCCNC(=O)c1cc2cc3cc(OC)ccc3nc2s1)c1cccc(C)c1 | inconclusive: 7.08 µM [inhibitor, single point]

Reprinted at random: two compounds from above
Structure (SMILES) | Potency
CCCCCCn1c(=O)n2n(c1=O)[C@@H]1CN(S(=O)(=O)c3ccc(C)cc3)C[C@]1(O)[C@@H](OC(=O)NCc1ccccc1F)C2 | inconclusive: 44.7 µM [inhibitor, partial curve]
CCN(CCCNC(=O)c1cc2cc3cc(OC)ccc3nc2s1)c1cccc(C)c1 | inconclusive: 7.08 µM [inhibitor, single point]

(more compounds)

Structure (SMILES) | Potency
O=C(Nc1cccnc1)c1cc(-c2ccc(Br)cc2)nc2ccccc12 | inconclusive: 17.8 µM [inhibitor, partial curve]
CC1=CC(C)(C)N2C(=O)C(=Nc3ccc(O)cc3)c3cccc1c32 | active: 3.55 µM
N#Cc1c(-c2ccccc2)cc(-c2ccccc2)nc1SCC(=O)NCC(=O)O | inactive
COc1ccc(/C=N/N2C(=O)CSC2=S)cc1 | inconclusive: 3.16 µM [inhibitor, partial curve]
C[C@@H]1Cn2cnc(C(=O)N[C@@H](Cc3c[nH]c4ccccc34)C(=O)OC(C)(C)C)c2C(=O)N1 | inconclusive: 0.316 µM [inhibitor, full curve]
COc1cccc(CNC(=O)CN2C(=O)CSc3ccc(S(=O)(=O)N(C)C)cc32)c1 | inactive
C=CCN(c1ccccc1)S(=O)(=O)c1cccc(C(=O)NCC(c2ccc(OC)cc2)N2CCCCC2)c1 (stereo not drawn) | inactive
CCC1COC(c2cccn2Cc2ccc(Cl)cc2)=N1 (stereo not drawn) | inconclusive: 31.6 µM [inhibitor, partial curve, poor fit]
CNS(=O)(=O)c1cn(CC(=O)N2CCN(c3ccc(OC)cc3)CC2)cc1S(=O)(=O)NC | inconclusive: 7.08 µM [inhibitor, single point]
O=C(Nc1ccc(N2CCC(N3CCCCC3)CC2)c(C(=O)O)c1)c1ccccc1 | inconclusive: 3.98 µM [inhibitor, single point]
COc1ccccc1NC(=O)COc1ccc(Br)cc1CO | inactive
Cc1cc2nc3c(=O)[nH]c(=O)[nH]c3nc2c([N+](=O)[O-])c1N | inconclusive: 15.8 µM [inhibitor, partial curve, poor fit]
CCCCCCC(=O)N/N=C(\C)Cc1ccccc1 | inactive
Cc1ccc2nc(-c3ccncc3)c(Nc3ccccc3C)n2c1 | inconclusive: 0.501 µM [inhibitor, partial curve, poor fit]
CC[C@]12c3[nH]c4ccccc4c3CCN1C(=O)C(CC(=O)NCCc1ccccn1)C[C@@H]2C(=O)N1CCN(C(=O)c2ccco2)CC1 (stereo partly drawn) | inconclusive: 5.01 µM [inhibitor, full curve, poor fit]
CCOC(=O)c1ccccc1NC(=O)CSc1nc2ncccc2o1 | inconclusive: 3.98 µM [inhibitor, partial curve]
CC(C)(C)OC(=O)NCCCC[C@H](NC(=O)c1nc[nH]c1C(=O)NC1CCN(C(=O)OC(C)(C)C)CC1)C(=O)OC(C)(C)C | inconclusive: 39.8 µM [inhibitor, partial curve, poor fit]
CC1CCCCN1N=Nc1nc2c([nH]1)c(=O)n(C)c(=O)n2C (stereo not drawn) | inconclusive: 39.8 µM [inhibitor, single point]
CSc1cc(-c2ccncc2)nc(-c2ccc(Cl)cc2)c1 | inactive
Cc1c(NC(=O)c2cc(-c3cccc(Cl)c3)on2)c(=O)n(-c2ccccc2)n1C | inconclusive: 10 µM [inhibitor, partial curve]
N#C/C(=C\c1ccc(N2CCOCC2)o1)C(=O)Nc1ccc(O)cc1 | inconclusive: 39.8 µM [inhibitor, partial curve, poor fit]

Structure (SMILES) | Potency
O=C1CC(=O)Nc2cc(S(=O)(=O)N3CCOc4ccccc43)ccc2N1 | inconclusive: 22.4 µM [inhibitor, partial curve, poor fit]
COc1cc(NC(=O)CSc2nc(C)c(C(=O)Nc3ccccc3)c(-c3ccc(OC)c(OC)c3)c2C#N)c(OC)cc1Cl | inconclusive: 7.94 µM [inhibitor, partial curve]
CC(C)(C)OC(=O)C[C@@H]1C/C=C\C[C@@H](CC(=O)N[C@@H](CO)Cc2ccccc2)C(=O)NC[C@@H](c2ccccc2)OC1=O | inconclusive: 10 µM [inhibitor, partial curve, poor fit]
CCOC(=O)c1c(C)sc(-c2c(-c3ccc4c(c3)OCCO4)[nH]c3c2c(=O)[nH]c(=O)n3C)c1O | active: 25.1 µM
COc1ccc(C2NC(c3ccc(OC)cc3)C(C)C(=O)C2C)cc1 (stereo not drawn) | inconclusive: 89.1 µM [inhibitor, partial curve, poor fit]
CCC(C)[C@H]1CN=C(N)N1CCc1cc(C(F)(F)F)cc(C(F)(F)F)c1 (stereo partly drawn) | inconclusive: 44.7 µM [inhibitor, partial curve, poor fit]
COc1ccc(N(C(=O)COc2c(C)cccc2C)S(=O)(=O)c2ccc(Cl)cc2)cc1 | inconclusive: 4.47 µM [inhibitor, full curve]
CC1(OC(=O)c2cccs2)C(=O)C=C2C=C3CCCN3C=C2C1=O (stereo not drawn) | inconclusive: 14.1 µM [inhibitor, partial curve]
COc1ccccc1-c1oc2ccccc2c1C#CC(C)(C)O | inconclusive: 6.31 µM [inhibitor, partial curve]
CCC(C(=O)Oc1c(C(C)C)cccc1C(C)C)c1ccccc1 (stereo not drawn) | inconclusive: 7.08 µM [inhibitor, partial curve]
CC1(C)Cc2c(C#N)c(N3CCN(C(=O)c4ccco4)CC3)nc(-c3ccco3)c2CS1 | inconclusive: 44.7 µM [inhibitor, partial curve, poor fit]
COc1ccccc1NC(=O)CCn1nc(-c2ccccc2)c2ccccc2c1=O | inactive
Cc1ccc(S(=O)(=O)/C(C#N)=C/c2c(N3CCOCC3)nc3c(C)cccn3c2=O)cc1 | inconclusive: 44.7 µM [inhibitor, partial curve, poor fit]
CCc1nc(SCC(=O)NNC(=O)c2ccc(OC)cc2)c2ccccc2n1 | inconclusive: 31.6 µM [inhibitor, partial curve]
Cc1occc1C(=O)/C(C#N)=C/c1ccc(O)c(Br)c1 | inconclusive: 39.8 µM [inhibitor, partial curve]
Cc1ccc(NC(=S)NNC(C)(C)C)cc1 | inconclusive: 56.2 µM [inhibitor, partial curve, poor fit]
COc1cc(/C=C2\N=C(C)OC2=O)cc(Cl)c1OC(C)=O | inactive
CC(=O)c1cccc(NC(=O)c2noc3c2CSc2ccccc2-3)c1 | inactive
O=C(NNc1c2ccccc2nc2ccccc12)C(O)c1ccccc1 (stereo not drawn) | inactive
Cc1nc2ccccc2c(=O)n1NC(=O)C1CCCCC1 | inconclusive: 1.12 µM [inhibitor, full curve, poor fit]
C=CCNc1sc(C(=O)c2ccc(Br)s2)c(N)c1C#N | inconclusive: 50.1 µM [inhibitor, partial curve, poor fit]
